Test results from US20030208060A1.
No constants are given. Whether binding was seen depends on the method and setting. Some results given as binding are weak or reduced against the parent protein; the word gives no strength. Sequences can lack the tags named with a protein.

Amino acid sequences for entries named in this document (tags omitted). Residues count along the entry.
UniProt E9Q414, residues 28-2178: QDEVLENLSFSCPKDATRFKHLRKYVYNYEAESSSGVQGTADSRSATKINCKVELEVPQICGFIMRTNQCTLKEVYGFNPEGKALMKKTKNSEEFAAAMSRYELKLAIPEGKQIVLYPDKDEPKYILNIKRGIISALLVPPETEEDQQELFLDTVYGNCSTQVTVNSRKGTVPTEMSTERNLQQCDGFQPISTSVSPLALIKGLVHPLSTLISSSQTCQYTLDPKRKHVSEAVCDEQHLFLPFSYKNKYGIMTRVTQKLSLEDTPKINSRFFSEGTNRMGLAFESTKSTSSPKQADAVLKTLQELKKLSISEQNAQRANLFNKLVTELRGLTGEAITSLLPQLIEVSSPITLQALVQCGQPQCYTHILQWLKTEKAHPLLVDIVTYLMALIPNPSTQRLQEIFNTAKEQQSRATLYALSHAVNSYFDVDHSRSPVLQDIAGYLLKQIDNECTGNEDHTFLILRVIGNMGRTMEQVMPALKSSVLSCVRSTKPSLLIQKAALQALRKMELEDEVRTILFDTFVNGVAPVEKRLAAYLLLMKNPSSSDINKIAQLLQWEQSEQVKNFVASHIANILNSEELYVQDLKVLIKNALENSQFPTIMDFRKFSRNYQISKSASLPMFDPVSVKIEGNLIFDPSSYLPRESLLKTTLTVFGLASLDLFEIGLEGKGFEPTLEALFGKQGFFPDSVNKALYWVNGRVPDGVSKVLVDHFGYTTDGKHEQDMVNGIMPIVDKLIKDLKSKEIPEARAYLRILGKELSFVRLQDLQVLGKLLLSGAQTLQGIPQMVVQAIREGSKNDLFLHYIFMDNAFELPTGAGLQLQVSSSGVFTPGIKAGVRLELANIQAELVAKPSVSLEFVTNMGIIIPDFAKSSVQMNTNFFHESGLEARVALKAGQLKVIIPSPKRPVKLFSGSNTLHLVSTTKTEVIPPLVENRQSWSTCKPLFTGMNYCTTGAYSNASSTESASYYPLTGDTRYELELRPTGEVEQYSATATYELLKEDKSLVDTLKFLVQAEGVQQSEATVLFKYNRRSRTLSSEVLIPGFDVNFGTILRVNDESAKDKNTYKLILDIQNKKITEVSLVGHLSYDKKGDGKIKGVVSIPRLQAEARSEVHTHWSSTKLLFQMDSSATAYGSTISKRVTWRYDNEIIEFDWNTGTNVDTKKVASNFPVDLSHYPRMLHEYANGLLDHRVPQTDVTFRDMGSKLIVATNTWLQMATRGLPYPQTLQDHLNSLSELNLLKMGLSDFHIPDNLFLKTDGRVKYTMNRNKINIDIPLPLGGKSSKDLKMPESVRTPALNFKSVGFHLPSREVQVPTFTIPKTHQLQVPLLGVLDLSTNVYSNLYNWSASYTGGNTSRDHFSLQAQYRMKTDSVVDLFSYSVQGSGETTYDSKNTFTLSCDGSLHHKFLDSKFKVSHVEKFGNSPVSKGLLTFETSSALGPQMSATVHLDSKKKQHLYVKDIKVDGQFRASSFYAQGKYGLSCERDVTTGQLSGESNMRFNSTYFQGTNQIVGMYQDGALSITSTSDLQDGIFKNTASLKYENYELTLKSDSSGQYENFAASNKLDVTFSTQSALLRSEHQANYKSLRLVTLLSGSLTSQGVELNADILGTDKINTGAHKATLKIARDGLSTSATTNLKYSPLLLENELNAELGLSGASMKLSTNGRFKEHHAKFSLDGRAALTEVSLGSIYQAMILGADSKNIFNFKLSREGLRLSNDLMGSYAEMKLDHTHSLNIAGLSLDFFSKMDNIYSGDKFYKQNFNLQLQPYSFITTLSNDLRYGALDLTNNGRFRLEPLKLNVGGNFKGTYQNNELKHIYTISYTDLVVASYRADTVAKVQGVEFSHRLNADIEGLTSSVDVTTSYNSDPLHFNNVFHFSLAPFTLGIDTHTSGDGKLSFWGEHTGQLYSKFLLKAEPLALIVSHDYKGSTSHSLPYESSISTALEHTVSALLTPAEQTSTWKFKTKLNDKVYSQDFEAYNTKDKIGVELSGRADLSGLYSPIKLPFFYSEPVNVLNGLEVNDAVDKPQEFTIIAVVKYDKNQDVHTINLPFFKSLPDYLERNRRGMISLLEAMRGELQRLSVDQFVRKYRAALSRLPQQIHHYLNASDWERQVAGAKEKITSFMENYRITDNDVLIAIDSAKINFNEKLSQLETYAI
UniProt P04114, residues 28-2179: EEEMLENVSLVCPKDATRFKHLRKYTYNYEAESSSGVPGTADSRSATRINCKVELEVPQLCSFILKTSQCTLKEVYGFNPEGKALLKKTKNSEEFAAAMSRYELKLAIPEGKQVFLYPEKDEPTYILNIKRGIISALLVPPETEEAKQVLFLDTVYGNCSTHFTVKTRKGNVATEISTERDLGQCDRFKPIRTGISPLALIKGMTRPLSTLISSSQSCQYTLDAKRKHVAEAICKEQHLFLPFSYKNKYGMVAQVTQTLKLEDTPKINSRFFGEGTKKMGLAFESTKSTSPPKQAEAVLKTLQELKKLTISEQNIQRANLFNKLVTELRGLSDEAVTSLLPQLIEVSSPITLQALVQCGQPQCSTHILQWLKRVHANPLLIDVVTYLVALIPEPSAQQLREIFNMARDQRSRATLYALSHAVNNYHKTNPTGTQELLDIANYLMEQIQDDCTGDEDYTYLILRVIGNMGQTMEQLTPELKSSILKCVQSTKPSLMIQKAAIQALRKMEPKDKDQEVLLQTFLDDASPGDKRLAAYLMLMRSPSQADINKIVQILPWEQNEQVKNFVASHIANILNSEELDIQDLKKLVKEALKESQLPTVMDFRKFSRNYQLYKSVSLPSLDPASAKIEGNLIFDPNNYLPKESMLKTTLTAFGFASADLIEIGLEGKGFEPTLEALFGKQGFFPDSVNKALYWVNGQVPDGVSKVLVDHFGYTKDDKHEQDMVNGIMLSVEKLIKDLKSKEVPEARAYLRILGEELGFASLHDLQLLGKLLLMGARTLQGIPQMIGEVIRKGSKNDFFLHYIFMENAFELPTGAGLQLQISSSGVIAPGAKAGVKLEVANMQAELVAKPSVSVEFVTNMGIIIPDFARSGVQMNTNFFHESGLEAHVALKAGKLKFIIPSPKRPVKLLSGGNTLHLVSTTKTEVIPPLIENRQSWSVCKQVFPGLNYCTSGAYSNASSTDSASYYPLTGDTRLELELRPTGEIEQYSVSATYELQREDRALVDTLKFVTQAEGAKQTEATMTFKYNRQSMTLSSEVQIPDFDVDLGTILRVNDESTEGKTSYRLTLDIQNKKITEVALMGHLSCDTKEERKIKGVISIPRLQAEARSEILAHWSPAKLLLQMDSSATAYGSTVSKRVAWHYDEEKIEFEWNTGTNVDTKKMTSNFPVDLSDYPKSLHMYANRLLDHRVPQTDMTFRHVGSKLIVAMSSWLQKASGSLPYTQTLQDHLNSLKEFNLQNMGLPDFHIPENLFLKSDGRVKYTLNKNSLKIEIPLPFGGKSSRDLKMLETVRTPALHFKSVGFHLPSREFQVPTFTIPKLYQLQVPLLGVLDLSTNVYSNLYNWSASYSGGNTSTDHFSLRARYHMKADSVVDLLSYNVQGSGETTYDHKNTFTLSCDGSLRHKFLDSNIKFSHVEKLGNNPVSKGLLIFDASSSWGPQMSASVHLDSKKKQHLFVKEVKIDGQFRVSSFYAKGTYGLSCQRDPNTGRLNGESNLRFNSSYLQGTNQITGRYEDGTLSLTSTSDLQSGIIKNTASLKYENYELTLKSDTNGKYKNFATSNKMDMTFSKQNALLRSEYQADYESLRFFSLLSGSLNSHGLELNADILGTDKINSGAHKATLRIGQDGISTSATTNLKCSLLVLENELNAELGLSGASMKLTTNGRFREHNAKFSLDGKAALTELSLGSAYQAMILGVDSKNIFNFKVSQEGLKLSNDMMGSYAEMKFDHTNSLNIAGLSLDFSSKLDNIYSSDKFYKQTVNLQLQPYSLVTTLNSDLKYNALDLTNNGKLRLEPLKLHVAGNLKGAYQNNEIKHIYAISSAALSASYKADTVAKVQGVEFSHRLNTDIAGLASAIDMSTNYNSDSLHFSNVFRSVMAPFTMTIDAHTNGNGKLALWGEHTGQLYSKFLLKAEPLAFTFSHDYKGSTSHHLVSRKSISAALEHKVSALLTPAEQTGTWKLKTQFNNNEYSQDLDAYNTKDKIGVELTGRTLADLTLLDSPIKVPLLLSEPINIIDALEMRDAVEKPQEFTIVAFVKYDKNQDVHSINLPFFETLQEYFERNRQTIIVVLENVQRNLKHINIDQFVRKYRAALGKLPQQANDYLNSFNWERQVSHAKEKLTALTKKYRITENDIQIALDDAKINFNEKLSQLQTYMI

Target: T1, MBP200 (membrane binding protein of ~200 kDa; human monocyte-macrophage apoB48 receptor, apoB48R) (human) (UniProt Q0VD83)
T1 sequence: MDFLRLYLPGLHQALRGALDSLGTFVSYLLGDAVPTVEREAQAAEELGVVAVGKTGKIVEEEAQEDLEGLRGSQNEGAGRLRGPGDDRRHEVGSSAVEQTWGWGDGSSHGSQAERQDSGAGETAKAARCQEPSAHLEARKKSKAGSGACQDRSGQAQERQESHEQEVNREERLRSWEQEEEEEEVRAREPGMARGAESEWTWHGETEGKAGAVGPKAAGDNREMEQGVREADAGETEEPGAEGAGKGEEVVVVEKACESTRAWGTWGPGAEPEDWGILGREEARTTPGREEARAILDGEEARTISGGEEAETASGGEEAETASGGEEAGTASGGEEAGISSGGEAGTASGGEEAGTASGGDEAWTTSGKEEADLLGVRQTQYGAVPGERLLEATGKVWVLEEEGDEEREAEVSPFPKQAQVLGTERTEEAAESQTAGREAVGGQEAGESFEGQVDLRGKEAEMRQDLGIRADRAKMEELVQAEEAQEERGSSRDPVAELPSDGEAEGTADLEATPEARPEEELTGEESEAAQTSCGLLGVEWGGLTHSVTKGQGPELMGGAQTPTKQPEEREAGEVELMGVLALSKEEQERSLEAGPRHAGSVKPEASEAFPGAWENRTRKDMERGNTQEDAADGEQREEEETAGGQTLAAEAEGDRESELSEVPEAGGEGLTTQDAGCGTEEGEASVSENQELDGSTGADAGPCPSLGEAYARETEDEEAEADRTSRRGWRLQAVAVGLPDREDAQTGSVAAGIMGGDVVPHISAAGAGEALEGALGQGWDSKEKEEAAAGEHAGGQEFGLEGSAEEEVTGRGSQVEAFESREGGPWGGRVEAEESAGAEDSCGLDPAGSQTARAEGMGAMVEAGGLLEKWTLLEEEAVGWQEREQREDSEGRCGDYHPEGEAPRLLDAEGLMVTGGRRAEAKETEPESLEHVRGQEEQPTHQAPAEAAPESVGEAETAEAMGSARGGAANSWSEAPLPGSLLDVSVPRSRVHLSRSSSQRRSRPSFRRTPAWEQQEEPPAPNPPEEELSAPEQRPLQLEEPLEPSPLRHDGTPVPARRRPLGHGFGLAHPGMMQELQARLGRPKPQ
Assay: ligand blot

apoE-free B-VLDL from apoE knockout mice (from UniProt E9Q414 28-2178)
binding: binds

plasma chylomicrons Sf>400 (from UniProt P04114 28-2179)
binding: binds
